Laboratory results reported in patent US20180217132, “MEASUREMENT METHOD AND MEASUREMENT DEVICE” (KYOCERA CORPORATION, published 2018).
For part of these data: No signal at the amounts used counts as a negative. The exact form of at least one protein or probe is not confirmed.

Experiments:
[1] = system: Hemoglobin A1c (HbA1c, glycated hemoglobin); experiment: SPR; settings: 2'-F at A and U, purified native protein
Hemoglobin A0 (HbA0) = experiment: SPR; settings: 2'-F at A and U; Biacore T200, HBS-P + 1 mM MgCl2 pH 7.4; method of Kd not explicitly stated; purified native protein

Sequence	binding result ([1]; not bound at all or extremely low binding, HBS-P + 1 mM MgCl2)	Kd (Hemoglobin A0 (HbA0)) [nM]	Kd ([1]; Biacore T200, HBS-P + 1 mM MgCl2 pH 7.4, method of Kd not explicitly stated) [nM]
GGGAUAGGAUCCACAUCUACGUAUUACGGCAUUAUUAGGACCAAUGCUGAGUACGGCGCACAGCUUUUUUCACUGCAGACUUGACGAAGCUUAAAAAAAAAAAAAAAAAA [RNA aptamer A]	no binding		
GGGAUAGGAUCCACAUCUACGUAUUAGAUUAGGACCAAUACGUGGUUGGCCCCCCCUCAACGACGCAGUUCACUGCAGACUUGACGAAGCUUAAAAAAAAAAAAAAAAAA [RNA aptamer B]		1000	50
